Values quoted from earlier work in patent US7678808B2, “5 HT receptor mediated neurogenesis” (BrainCells, Inc., priority 2006, dated 2010).
At least one read-out could not be matched to a standard name with certainty.

Details: cited from earlier work

Row | Compound | permeability across the blood-brain barrier
1 | N[C@@]1(C(=O)O)CO[C@H]2[C@H](C(=O)O)[C@H]21 [LY379268, (−)-2-oxa-4-aminobicyclohexane-4,6-dicarboxylic acid] | readily permeable across the blood-brain barrier
2 | N[C@](CC1c2ccccc2Oc2ccccc21)(C(=O)O)[C@H]1C[C@@H]1C(=O)O [LY341495, (2S)-2-amino-2-(1S,2S-2-carboxycycloprop-1-yl)-3-(xanth-9-yl) propanoic acid] | readily permeably across the blood-brain barrier
